PubChem BioAssay AID1458 (National Center for Advancing Translational Sciences (NCATS), 2008)
Out of some 210,000 compounds screened, about 5,900 (2.8%) were called active. Roughly 5% stayed inconclusive and do not appear here. The call rests on the fitted dose curve; in most records, active means well fitted activation curve with a large enough effect; inconclusive means small, poorly fitted or top-dose-only effect; inactive means no such curve, though single readings can be large or run the other way. Only a part is listed here, and it is no random draw. The source gives no active or inactive call for entries shown without one.
Potency means the concentration at half of the fitted maximal effect.

Assay: qHTS Assay for Enhancers of SMN2 Splice Variant Expression; further: nearly all actives have a fitted effect of over 55% in size; on activity change, positive = activation: % of control where 0% means no effect
Conditions: HEK293 SMN2-luciferase splicing reporter, luminescence, 30-36 h; activity change, positive = activation: at 46.1 µM (top of the series) unless noted
How it was run: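 qHTS luciferase splicing reporter: luminescence rises when SMN2 exon 7 is included in transfected HEK293 cells. Compound exposure lasted 30-36 h at 37C, with 4.5 mM final sodium butyrate as control, followed by a ONE-Glo read.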
In the case of `O=C(Cn1cc([N+](=O)[O-])cn1)Nc1ccn(Cc2c(F)c(F)c(F)c(F)c2F)n1`, the “activity change, positive = activation” value is reported as inactive: -32.7%.
For `Cc1nc2ccccn2c1C(=O)N=Nc1c(O)n(CCC(C)C)c2ccccc12`, the “activity change, positive = activation” value was inactive: -74.7%.
With `Cc1cccc(S(=O)(=O)Nc2cccc3c2C(=O)c2ccccc2-3)c1` the “activity change, positive = activation” value was inactive: -68.1%.
With `COc1ccc2cc3cc(C(=O)NC(C)C)oc3nc2c1` the activity change, positive = activation was 39.7%.
In the case of `O=C(/C=C/c1ccc(O)cc1)c1ccc(NC2=C(N3CCCCC3)C(=O)c3ccccc3C2=O)cc1`, the “activity change, positive = activation” value is reported as inactive: -98.8%.
With `Nc1c(C(=O)N/N=C/c2cccnc2)cnn1-c1ccccc1` the activity change, positive = activation was 44.9%.
`CCN1C(=O)c2c(C)nc3ccccc3c2C1=O` showed an activity change, positive = activation of 56.1%.
`CCOC(=O)Cc1csc(NC(=S)NC(=O)c2ccccc2Br)n1` gave an activity change, positive = activation of -44%.
With `N#CC1=C2SC=C(c3ccc(Br)cc3)N2CCCC1=O` the Potency was active: 15.8 µM.
`CC(=O)NCCNC(=O)c1ccc(-n2c(C)ccc2C)cc1` showed an activity change, positive = activation of 40.9%.
For `Cc1ccc2nsnc2c1S(=O)(=O)NCc1cccnc1`, the activity change, positive = activation was 30.7%.
With `CCOc1ccc2nc(N3CCCC(C(=O)NCCCN4CCOCC4)C3)sc2c1` (centres undefined) the Potency was active: 12.6 µM.
Work on `COc1cccc(OCCNc2cc(N3CCOCC3)ccc2[N+](=O)[O-])c1` yielded an activity change, positive = activation of 44.8%.
Molecule `CCN(CC)CC(O)Cn1c2ccccc2c2ccccc21` (centres undefined) has an activity change, positive = activation of 36.7%.
For `CC(=O)Nc1ccc(N=Nc2ccccc2)cc1`, the Potency was active: 10 µM.
Molecule `Cc1ccc(-c2nnc(Cc3ccc([N+](=O)[O-])cc3)o2)cc1` has an activity change, positive = activation of -11.7%.
For `O=C(Nc1nnc(SCc2ccc(Cl)cc2)s1)C1CC(=O)N(Cc2ccccc2)C1` (centres undefined), the activity change, positive = activation was -32.8%.
For `COc1cc(SC)ccc1C(=O)Nc1nc(C)cs1`, the “activity change, positive = activation” value was inactive: -80.7%.
For `O=C(Nc1ccc(/C=C/c2nc3ccccc3o2)cc1)c1c(F)cccc1F`, the Potency was active: 8.91 µM.
In the case of `COc1ccc(NC(=S)NC(NC(=O)c2cccc(Cl)c2)C(Cl)(Cl)Cl)c([N+](=O)[O-])c1` (centres undefined), the “activity change, positive = activation” value is reported as inactive: -96.9%.
Molecule `Cc1c(CCC(=O)NCc2ccc(F)cc2)c(=O)oc2cc(O)ccc12` has an activity change, positive = activation of 59.3%.
In the case of `O=c1c(-c2ccc(F)cc2)coc2cc(O)ccc12`, the “activity change, positive = activation” value is reported as inactive: 77.5%.
In the case of `Cc1nn(-c2ccccc2)c(N)c1Sc1ccc([N+](=O)[O-])cc1`, the “activity change, positive = activation” value is reported as inactive: -37.6%.
For `Cc1cc(C)c2c(=O)[nH]n(C(C)C)c2n1`, the activity change, positive = activation was 38.8%.
For `Cc1ccc(S(=O)(=O)Nc2c(C)n(C)n(-c3ccccc3)c2=O)cc1C(=O)NCc1ccccn1`, the activity change, positive = activation was 32.6%.
For `Cc1nn2cc(-c3ncc(C(F)(F)F)cc3Cl)cnc2c1Br`, the activity change, positive = activation was 46.3%.
In the case of `O=C(c1cc(-c2ccc(Cl)cc2)on1)N1CCOCC1`, the Potency is reported as active: 3.16 µM.
With `CCOc1ccc(NC(=O)Cn2c(=O)n(-c3cccc(Cl)c3)c(=O)c3c2c2cc(C)ccc2n3C)cc1` the activity change, positive = activation was 36.3%.
With `CSc1nc(-c2ccccc2)nn1S(=O)(=O)c1ccc(Cl)cc1` the activity change, positive = activation was 30.9%.
